Reference: article PMC6264874, “A single class of ARF GTPase activated by several pathway-specific ARF-GEFs regulates essential membrane traffic in Arabidopsis” (PLoS Genetics, 2018)
Results are given in words; binding and its absence hold for the method and conditions named. Binding seen in cells or lysates may run through a third protein. Some binding calls cover weakened binding; strength is not graded here. Sequences can lack the tags named with a protein.

Sequences of proteins named here, by UniProt entry; tags and fusion partners are left off.
UniProt P36397: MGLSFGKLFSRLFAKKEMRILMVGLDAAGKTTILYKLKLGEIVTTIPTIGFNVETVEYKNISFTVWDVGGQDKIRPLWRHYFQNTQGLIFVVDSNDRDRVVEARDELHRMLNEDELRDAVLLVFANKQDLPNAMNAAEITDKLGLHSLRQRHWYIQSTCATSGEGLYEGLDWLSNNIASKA

Biological target: T1, GNL1-Myc (Arabidopsis thaliana) (UniProt Q9FLY5)
T1 sequence: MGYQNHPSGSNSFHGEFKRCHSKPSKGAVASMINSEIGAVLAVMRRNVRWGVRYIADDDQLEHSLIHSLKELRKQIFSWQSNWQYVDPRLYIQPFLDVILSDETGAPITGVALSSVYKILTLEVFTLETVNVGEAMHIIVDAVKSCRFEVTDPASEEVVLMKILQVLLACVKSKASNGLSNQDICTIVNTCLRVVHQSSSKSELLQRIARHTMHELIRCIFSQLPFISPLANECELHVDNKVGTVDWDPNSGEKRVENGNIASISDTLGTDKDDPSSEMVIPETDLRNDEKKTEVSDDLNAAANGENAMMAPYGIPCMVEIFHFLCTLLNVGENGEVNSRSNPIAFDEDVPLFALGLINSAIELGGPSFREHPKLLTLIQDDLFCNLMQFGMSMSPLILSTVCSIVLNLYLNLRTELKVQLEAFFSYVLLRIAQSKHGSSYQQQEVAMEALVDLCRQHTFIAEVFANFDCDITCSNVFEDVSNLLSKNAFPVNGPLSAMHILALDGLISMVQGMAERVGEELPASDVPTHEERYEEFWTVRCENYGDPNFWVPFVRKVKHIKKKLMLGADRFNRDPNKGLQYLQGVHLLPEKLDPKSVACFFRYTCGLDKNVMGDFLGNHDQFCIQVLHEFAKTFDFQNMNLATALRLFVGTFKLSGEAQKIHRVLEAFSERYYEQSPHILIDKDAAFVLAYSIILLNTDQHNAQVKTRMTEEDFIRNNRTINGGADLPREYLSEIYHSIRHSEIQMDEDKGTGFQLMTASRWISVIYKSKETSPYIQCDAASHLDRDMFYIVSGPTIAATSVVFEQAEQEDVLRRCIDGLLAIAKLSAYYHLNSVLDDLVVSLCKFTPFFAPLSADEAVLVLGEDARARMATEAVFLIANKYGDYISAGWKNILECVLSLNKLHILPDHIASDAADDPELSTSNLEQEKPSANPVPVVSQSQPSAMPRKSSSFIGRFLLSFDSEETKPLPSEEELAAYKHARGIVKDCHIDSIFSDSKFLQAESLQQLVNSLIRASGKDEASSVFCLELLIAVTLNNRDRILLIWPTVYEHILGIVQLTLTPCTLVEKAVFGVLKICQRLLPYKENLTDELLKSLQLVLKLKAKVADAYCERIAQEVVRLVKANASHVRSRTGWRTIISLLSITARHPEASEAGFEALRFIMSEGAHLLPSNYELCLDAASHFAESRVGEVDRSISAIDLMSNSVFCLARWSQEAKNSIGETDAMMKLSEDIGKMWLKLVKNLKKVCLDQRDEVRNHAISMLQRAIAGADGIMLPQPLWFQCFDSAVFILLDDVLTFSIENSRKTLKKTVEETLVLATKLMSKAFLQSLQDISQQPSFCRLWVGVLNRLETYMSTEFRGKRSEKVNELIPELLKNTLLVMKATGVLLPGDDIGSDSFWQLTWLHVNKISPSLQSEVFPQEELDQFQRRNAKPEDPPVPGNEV
Assay: co-IP; protein extracts of 5-6 days old Arabidopsis seedlings expressing differently tagged ARFs and ARF-GEFs; lysis buffer 50mM Tris pH 7.5, 150mM NaCl, 2mM EDTA, 1% Triton X-100; alpha-Myc-agarose, GFP-Trap or RFP-Trap beads, 2.5-3h in the cold room; immunoblot; in some experiments with BFA (50 uM); T31N and Q71L forms induced with 20 uM estradiol for 6h

Q: For “ARF1-YFP (ARFA1c-YFP) (from UniProt P36397 1-181)”, which binding is on record?
A: binds
